PubChem BioAssay AID504786 – Drosophila RNAi Screening Center | 2011

Test: 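Fly genes required for HIF-dependent transcription when hypoxia is mimicked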 (primary screen)
Cells: Drosophila S2 cells with a stable HIF luciferase reporter
Reagents: long dsRNA against Drosophila genes, about 0.2 µg dsRNA per well of a 384-well plate
Duration: three days of knock-down, then 20 h of DFO before reading
Treatment: desferrioxamine (DFO) at 100 µM, an iron chelator that mimics hypoxia, for 20 h
Measured: 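Firefly luciferase driven by the mouse ldh-a hypoxia-response element, measured after 20 h of 100 µM DFO; z-scores per plate, higher means more signal lost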
Scale: z-score: higher = stronger loss of HIF reporter signal
The deposit covers about 21,000 reagents; this is an unselected part of those with a known target gene and a result. 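Primary screen; positive scores mean lost reporter signal, so the sign may be inverted from the usual convention.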

CG10165 (GeneID 35242) [DRSC02017] gave z-score, replicate 1 = -0.2; z-score, replicate 2 = 0.
After knock-down of CG42795 (GeneID 41252) [DRSC12772], the record shows z-score, replicate 1 = -0.1; z-score, replicate 2 = -0.1.
With knock-down of CG42795 (GeneID 41252) [DRSC15533], the record shows z-score, replicate 1 = -0.2; z-score, replicate 2 = -0.3.
Depletion of CG10920 (GeneID 31688) [DRSC17765] gave: z-score, replicate 1 = -0.1; z-score, replicate 2 = -0.1.
Against Hmu (GeneID 43294) [DRSC16705] the deposit lists z-score, replicate 1 = 0; z-score, replicate 2 = -0.1.
With knock-down of Ip259 (GeneID 34419) [DRSC03352], the screen gave z-score, replicate 1 = 0.3; z-score, replicate 2 = 2.
Obp8a (GeneID 31860) [DRSC17868] scored z-score, replicate 1 = -0.3; z-score, replicate 2 = -0.1.
Depletion of CG13587 (GeneID 37930) [DRSC04223] resulted in: z-score, replicate 1 = -0.2; z-score, replicate 2 = -0.4.
After knock-down of psh (GeneID 32832) [DRSC19990], the screen gave z-score, replicate 1 = -0.3; z-score, replicate 2 = -0.5.
For CG4704 (GeneID 42706) [DRSC15628] the deposit lists z-score, replicate 1 = -0.1; z-score, replicate 2 = 0.3.
Silencing of CG9593 (GeneID 41912) [DRSC16508] gave: z-score, replicate 1 = -0.5; z-score, replicate 2 = 0.
Knock-down of CG31759 (GeneID 326158) [DRSC01230] resulted in: z-score, replicate 1 = 0.5; z-score, replicate 2 = -0.1.
loco (GeneID 42672) [DRSC15202] scored z-score, replicate 1 = 0.1; z-score, replicate 2 = 1.2.
With knock-down of loco (GeneID 42672) [DRSC16989], the record shows z-score, replicate 1 = 0; z-score, replicate 2 = 0.1.
With knock-down of CG17721 (GeneID 41354) [DRSC15253], the record shows z-score, replicate 1 = -0.2; z-score, replicate 2 = -0.5.
Silencing of CR18166 (GeneID 8673968) [DRSC17260] gave: z-score, replicate 1 = -0.4; z-score, replicate 2 = -0.3.
CR18166 (GeneID 8673968) [DRSC18147] scored z-score, replicate 1 = -0.1; z-score, replicate 2 = 1.1.
With knock-down of CG14947 (GeneID 34628) [DRSC02429] the results were z-score, replicate 1 = -0.4; z-score, replicate 2 = -0.6.
Drl-2 (GeneID 36436) [DRSC05393] scored z-score, replicate 1 = -0.3; z-score, replicate 2 = -0.3.
Knock-down of Drl-2 (GeneID 36436) [DRSC06155] resulted in: z-score, replicate 1 = -0.4; z-score, replicate 2 = 0.
Knock-down of Drl-2 (GeneID 36436) [DRSC06858] resulted in: z-score, replicate 1 = -0.4; z-score, replicate 2 = -0.1.
With knock-down of CG17192 (GeneID 43248) [DRSC15186], the screen gave z-score, replicate 1 = -0.3; z-score, replicate 2 = -0.2.
Against CG17375 (GeneID 33956) [DRSC02614], the values are z-score, replicate 1 = -0.3; z-score, replicate 2 = -0.1.
Ret (GeneID 43875) [DRSC03409] scored z-score, replicate 1 = -0.3; z-score, replicate 2 = -0.6.
Ret (GeneID 43875) [DRSC03410] scored z-score, replicate 1 = -0.1; z-score, replicate 2 = -0.3.

5 entries from above, reformatted.
target gene,dsRNA,"z-score, replicate 1","z-score, replicate 2"
CG4704 (GeneID 42706),DRSC15628,-0.1,0.3
CG9593 (GeneID 41912),DRSC16508,-0.5,0
CG31759 (GeneID 326158),DRSC01230,0.5,-0.1
loco (GeneID 42672),DRSC15202,0.1,1.2
loco (GeneID 42672),DRSC16989,0,0.1

The results go on:
Against CG15923 (GeneID 42443) [DRSC15129], the values are z-score, replicate 1 = -0.2; z-score, replicate 2 = -0.4.
CG10055 (GeneID 40862) [DRSC12503] scored z-score, replicate 1 = 0; z-score, replicate 2 = 0.4.
comm3 (GeneID 39696) [DRSC09993] showed z-score, replicate 1 = -0.3; z-score, replicate 2 = -0.2.
comm3 (GeneID 39696) [DRSC09994] showed z-score, replicate 1 = 0.3; z-score, replicate 2 = 0.5.
With knock-down of comm3 (GeneID 39696) [DRSC09995], the screen gave z-score, replicate 1 = 0.4; z-score, replicate 2 = -0.3.
frj (GeneID 33900) [DRSC03250] gave z-score, replicate 1 = -0.3; z-score, replicate 2 = -0.1.
For Cyp313a4 (GeneID 41563) [DRSC16627], the entry reads z-score, replicate 1 = -0.3; z-score, replicate 2 = -0.7.
Knock-down of CG1909 (GeneID 43800) [DRSC17150] gave: z-score, replicate 1 = 0.2; z-score, replicate 2 = -0.1.
With knock-down of Trx2 (GeneID 34281) [DRSC03622], the screen gave z-score, replicate 1 = -0.3; z-score, replicate 2 = -0.4.
Against CSN5 (GeneID 42000) [DRSC16592] the deposit lists z-score, replicate 1 = -0.2; z-score, replicate 2 = -0.1.
Silencing of CG1146 (GeneID 38313) [DRSC08189] came out at: z-score, replicate 1 = -0.2; z-score, replicate 2 = -0.3.
stg (GeneID 43466) [DRSC17071] gave z-score, replicate 1 = 0.5; z-score, replicate 2 = -0.2.
For CG9782 (GeneID 32632) [DRSC19145], the entry reads z-score, replicate 1 = 0.8; z-score, replicate 2 = 0.1.
Against CG9782 (GeneID 32632) [DRSC20209] the deposit lists z-score, replicate 1 = -0.3; z-score, replicate 2 = 0.
Against mub (GeneID 40436) [DRSC11896], the entry reads z-score, replicate 1 = -0.1; z-score, replicate 2 = 0.
